At least one structure is not confirmed: it was looked up by name or label, or the drawing left a doubt.
Test system: NC/Nga mouse model of atopic skin disease
Assay: DNCB-induced atopic dermatitis in the NC/Nga mouse model, oral administration
Assay type: in vivo
Settings: calipers, three weeks after start of administration

For `C[C@@H]1C[C@H]2[C@@H]3CCC4=CC(=O)C=C[C@]4(C)[C@@]3(F)[C@@H](O)C[C@]2(C)[C@@]1(O)C(=O)CO` [dexamethasone], the dorsal skin thickness was “significantly reduced” and the ear thickness was “significantly reduced”.

From patent publication US11141444B2, “Lactobacillus crispatus KBL693 strain and use thereof” (KO Biolabs, Inc., priority 2018, dated 2021)
